# Source: article PMC5780470, “Copper(I)-binding properties of de-coppering drugs for the treatment of Wilson disease. α-Lipoic acid as a potential anti-copper agent” (Scientific Reports, 2018)
# Test system: Cox17 (Cu1Cox17, apo-Cox17_3S-S)
# Experiment: ESI-MS demetallation of Cu1Cox17, hyperbolic fit
# Assay type: binding
# Details: C50 for Cu(I) extraction from 1 uM Cu1Cox17, reference chelator; 20 mM ammonium acetate, pH 7.3, 25 °C
structure (smiles),measurement,value
"OC(CS)C(O)CS (stereo not shown) [DTT, dithiotreitol, reference compound]",IC50,3.1 ± 0.26 mM
